Results published in paper PMC11173073.
These are yes or no findings as the source states them, for the method shown. Binding seen in cells or lysates may run through a third protein. Where a sequence is shown, tags or fusion partners need not be part of it.

Biological target: T1, C15orf39-GFP (human) (UniProt Q6ZRI6)
T1 sequence: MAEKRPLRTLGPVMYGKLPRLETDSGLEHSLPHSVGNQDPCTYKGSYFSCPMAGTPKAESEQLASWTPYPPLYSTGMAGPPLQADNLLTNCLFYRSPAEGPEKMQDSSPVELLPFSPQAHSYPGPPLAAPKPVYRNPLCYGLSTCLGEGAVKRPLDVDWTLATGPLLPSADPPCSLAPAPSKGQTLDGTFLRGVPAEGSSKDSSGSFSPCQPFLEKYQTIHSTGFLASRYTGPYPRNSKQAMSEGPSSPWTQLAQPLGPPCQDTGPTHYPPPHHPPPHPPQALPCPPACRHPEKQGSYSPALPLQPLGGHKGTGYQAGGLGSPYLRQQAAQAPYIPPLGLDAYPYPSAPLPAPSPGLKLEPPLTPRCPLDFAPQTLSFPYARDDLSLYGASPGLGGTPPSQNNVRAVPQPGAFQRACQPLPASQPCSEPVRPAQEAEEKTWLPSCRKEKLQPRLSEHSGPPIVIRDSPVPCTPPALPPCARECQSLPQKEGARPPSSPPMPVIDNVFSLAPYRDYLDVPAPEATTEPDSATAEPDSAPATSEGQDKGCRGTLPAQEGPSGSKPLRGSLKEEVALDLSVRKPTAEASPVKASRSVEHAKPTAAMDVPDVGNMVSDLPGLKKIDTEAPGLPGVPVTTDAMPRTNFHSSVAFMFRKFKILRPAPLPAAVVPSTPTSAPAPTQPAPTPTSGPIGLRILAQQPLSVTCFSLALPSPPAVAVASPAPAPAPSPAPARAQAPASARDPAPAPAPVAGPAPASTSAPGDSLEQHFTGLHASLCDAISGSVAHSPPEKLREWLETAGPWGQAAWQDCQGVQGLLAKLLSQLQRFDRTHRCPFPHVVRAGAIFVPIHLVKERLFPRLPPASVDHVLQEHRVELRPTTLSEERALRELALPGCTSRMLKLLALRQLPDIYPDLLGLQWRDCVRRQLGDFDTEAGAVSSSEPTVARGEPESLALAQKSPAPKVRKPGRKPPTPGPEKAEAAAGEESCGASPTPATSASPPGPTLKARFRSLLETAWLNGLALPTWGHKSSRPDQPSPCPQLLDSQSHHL
Experiment: co-IP; HMC3 cells co-transfected with C15orf39-GFP and Flag-tagged PRMT2 constructs; NP40 lysis buffer; anti-GFP antibody on protein A Dynabeads added to lysate, 1 h at RT; five washes; western blot with anti-Flag antibody

binding: no binding
B1: PRMT2 (1–95), Flag-tagged (domain or fragment, UniProt P55345 1-95)
chain: MATSGDCPRSESQGEEPAECSEAGLLQEGVQPEEFVAIADYAATDETQLSFLRGEKILILRQTTADWWWGERAGCCGYIPANHVGKHVDEYDPED
